These are yes or no findings as the source states them, for the method shown. Binding seen in cells or lysates may run through a third protein. A yes stands for co-enrichment or nearness to the bait. Other partners may have been found.

Sequences of proteins named here, by UniProt entry; tags and fusion partners are left off.
UniProt P52294: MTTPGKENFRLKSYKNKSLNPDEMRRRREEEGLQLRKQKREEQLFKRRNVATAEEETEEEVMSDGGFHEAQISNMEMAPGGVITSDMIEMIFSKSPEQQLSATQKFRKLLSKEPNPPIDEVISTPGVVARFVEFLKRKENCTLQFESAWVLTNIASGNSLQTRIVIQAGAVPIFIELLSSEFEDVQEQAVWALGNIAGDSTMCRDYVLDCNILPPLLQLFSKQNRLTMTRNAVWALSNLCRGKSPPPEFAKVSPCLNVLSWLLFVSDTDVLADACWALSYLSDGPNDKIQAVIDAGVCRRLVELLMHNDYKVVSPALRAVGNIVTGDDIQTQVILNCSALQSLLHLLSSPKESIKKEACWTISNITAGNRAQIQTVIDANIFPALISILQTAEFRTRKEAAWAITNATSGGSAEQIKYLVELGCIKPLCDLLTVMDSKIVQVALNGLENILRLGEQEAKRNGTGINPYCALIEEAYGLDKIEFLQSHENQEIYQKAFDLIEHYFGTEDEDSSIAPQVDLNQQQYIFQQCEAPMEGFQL
UniProt O15131: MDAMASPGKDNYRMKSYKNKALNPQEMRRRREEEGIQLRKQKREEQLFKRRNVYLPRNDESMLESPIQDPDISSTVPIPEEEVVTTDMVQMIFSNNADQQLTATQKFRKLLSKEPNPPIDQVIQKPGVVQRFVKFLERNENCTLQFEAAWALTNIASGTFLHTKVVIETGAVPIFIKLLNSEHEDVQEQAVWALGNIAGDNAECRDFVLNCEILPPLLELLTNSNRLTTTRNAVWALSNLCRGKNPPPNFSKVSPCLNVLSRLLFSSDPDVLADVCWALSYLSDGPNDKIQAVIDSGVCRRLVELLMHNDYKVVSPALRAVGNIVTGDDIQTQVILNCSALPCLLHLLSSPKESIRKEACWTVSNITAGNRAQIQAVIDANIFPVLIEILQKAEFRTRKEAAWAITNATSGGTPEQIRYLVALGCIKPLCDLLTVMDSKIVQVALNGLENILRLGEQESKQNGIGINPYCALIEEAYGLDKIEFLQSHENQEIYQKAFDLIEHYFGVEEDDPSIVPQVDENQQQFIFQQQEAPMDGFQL
UniProt Q8TEX9: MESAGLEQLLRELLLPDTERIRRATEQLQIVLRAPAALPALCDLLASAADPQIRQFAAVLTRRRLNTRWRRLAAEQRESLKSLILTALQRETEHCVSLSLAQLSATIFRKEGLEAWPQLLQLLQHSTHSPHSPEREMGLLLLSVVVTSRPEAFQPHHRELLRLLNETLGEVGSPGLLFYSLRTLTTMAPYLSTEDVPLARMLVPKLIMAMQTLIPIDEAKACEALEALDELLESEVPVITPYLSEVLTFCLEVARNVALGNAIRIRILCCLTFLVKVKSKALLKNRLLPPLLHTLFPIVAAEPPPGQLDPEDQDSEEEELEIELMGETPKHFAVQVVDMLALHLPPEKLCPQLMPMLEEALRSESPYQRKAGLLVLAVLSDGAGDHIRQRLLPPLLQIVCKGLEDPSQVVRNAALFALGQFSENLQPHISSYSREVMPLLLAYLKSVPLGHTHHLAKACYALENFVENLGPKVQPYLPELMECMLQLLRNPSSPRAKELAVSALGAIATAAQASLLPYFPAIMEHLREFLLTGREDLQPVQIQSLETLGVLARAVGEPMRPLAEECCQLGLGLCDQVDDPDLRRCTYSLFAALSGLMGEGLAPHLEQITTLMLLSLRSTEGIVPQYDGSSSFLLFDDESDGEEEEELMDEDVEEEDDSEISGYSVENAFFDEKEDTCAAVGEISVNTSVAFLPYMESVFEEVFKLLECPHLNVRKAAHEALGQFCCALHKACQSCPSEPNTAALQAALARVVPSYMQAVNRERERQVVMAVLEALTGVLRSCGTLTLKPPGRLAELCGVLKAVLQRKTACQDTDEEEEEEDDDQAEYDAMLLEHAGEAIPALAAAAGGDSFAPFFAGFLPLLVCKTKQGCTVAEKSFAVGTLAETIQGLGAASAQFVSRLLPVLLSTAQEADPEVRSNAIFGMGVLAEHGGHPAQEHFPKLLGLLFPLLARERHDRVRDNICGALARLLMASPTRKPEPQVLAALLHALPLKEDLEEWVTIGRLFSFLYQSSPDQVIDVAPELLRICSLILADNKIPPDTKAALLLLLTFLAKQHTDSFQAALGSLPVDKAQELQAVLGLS
UniProt O00410: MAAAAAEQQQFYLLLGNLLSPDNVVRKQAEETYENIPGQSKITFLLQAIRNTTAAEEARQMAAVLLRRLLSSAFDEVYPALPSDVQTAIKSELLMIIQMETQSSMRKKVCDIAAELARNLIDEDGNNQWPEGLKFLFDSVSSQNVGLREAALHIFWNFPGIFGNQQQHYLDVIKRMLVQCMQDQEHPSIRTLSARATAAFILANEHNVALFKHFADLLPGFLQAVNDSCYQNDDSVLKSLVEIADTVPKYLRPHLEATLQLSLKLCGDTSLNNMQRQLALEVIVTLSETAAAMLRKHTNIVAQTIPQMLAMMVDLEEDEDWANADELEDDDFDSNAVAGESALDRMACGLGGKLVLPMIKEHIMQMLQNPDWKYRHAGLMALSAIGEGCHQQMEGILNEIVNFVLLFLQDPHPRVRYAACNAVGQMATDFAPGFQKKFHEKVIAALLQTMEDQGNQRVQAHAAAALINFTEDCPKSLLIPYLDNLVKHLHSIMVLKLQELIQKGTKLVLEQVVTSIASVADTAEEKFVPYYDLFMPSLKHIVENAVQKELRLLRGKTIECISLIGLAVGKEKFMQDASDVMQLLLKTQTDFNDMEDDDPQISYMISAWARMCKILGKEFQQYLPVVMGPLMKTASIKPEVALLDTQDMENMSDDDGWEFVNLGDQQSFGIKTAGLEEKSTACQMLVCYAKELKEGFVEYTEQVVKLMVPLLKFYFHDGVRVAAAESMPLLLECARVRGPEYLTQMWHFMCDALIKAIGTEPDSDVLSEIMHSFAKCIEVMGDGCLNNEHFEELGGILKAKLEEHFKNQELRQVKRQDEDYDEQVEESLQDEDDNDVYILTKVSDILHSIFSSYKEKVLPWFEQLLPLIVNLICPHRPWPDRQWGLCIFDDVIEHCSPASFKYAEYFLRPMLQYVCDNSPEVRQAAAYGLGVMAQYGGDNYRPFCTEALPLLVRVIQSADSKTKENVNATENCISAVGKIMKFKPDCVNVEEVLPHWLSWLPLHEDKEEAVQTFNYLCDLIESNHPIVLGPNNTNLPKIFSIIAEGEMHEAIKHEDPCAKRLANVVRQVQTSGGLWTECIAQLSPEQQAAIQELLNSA
UniProt Q92973: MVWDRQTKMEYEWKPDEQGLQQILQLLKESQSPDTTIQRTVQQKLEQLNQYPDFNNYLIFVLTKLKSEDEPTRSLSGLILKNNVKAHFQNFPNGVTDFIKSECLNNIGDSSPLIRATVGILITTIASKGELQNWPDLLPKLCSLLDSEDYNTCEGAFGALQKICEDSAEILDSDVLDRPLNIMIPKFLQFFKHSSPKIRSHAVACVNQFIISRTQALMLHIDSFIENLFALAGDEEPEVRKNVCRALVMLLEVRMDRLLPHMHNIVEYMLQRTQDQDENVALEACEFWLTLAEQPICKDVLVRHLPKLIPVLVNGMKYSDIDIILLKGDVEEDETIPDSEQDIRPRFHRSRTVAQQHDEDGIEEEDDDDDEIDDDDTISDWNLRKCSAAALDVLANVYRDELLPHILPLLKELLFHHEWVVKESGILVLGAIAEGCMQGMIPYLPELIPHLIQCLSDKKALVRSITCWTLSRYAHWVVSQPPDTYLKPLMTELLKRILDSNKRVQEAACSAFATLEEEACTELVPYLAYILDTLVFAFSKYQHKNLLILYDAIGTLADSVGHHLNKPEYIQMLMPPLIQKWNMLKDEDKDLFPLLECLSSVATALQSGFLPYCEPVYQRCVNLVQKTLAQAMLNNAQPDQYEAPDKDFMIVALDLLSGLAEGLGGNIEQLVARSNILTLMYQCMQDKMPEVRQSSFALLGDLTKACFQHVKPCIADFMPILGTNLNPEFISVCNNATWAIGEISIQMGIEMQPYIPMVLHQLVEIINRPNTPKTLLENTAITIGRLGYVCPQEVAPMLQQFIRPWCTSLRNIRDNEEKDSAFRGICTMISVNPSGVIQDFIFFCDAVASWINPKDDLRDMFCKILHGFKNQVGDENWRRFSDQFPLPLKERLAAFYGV
UniProt P49790: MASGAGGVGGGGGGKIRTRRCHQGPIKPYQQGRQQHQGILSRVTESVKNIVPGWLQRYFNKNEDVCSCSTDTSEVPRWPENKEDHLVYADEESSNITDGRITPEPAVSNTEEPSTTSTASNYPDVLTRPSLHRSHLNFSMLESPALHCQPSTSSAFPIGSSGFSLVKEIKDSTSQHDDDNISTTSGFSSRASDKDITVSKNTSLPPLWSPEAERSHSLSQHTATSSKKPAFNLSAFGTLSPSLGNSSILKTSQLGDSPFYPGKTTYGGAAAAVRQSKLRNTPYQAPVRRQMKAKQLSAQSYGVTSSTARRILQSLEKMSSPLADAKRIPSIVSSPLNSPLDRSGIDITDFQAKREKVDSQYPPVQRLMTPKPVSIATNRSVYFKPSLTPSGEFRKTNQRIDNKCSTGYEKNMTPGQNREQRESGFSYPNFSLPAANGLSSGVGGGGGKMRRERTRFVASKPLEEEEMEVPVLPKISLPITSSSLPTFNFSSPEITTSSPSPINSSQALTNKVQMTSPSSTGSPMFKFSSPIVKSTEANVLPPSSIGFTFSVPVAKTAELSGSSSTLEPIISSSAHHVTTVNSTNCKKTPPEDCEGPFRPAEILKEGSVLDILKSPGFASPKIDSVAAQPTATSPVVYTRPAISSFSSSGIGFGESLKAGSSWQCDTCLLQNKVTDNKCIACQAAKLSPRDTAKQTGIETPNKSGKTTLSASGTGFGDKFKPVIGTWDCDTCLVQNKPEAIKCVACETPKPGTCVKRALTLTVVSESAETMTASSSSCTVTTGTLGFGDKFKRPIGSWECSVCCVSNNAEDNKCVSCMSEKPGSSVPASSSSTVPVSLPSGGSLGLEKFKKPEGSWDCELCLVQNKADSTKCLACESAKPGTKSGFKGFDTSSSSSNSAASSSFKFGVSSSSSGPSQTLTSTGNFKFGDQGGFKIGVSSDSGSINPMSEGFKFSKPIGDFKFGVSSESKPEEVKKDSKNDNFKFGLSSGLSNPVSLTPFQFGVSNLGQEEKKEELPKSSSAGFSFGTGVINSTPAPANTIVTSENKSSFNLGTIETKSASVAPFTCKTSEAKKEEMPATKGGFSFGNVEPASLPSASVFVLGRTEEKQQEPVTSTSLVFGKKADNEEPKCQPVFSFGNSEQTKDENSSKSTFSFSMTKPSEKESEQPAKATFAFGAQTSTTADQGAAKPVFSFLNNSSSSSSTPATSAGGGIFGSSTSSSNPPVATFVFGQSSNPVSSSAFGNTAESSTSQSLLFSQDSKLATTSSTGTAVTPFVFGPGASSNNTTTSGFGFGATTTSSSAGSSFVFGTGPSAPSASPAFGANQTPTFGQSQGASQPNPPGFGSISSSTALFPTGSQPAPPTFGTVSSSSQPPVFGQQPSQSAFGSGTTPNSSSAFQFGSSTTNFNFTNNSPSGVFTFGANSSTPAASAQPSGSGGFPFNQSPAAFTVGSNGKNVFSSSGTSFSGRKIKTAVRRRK

Among the targets are IMA5 (human) (UniProt P52294); IMA6 (human) (UniProt O15131); IPO4 (human) (UniProt Q8TEX9); IPO5 (human) (UniProt O00410); TNPO1 (human) (UniProt Q92973).
Test in all cases: proximity labelling; BioID, large-scale, direct identification of biotinylated peptides: same NTR-BirA* lines; biotinylated peptides eluted from streptavidin beads with 80% ACN, 20% TFA after the on-bead digest, MS
A further experiment deals with T1, IPO11 (human) (UniProt Q9UI26).
T1 sequence: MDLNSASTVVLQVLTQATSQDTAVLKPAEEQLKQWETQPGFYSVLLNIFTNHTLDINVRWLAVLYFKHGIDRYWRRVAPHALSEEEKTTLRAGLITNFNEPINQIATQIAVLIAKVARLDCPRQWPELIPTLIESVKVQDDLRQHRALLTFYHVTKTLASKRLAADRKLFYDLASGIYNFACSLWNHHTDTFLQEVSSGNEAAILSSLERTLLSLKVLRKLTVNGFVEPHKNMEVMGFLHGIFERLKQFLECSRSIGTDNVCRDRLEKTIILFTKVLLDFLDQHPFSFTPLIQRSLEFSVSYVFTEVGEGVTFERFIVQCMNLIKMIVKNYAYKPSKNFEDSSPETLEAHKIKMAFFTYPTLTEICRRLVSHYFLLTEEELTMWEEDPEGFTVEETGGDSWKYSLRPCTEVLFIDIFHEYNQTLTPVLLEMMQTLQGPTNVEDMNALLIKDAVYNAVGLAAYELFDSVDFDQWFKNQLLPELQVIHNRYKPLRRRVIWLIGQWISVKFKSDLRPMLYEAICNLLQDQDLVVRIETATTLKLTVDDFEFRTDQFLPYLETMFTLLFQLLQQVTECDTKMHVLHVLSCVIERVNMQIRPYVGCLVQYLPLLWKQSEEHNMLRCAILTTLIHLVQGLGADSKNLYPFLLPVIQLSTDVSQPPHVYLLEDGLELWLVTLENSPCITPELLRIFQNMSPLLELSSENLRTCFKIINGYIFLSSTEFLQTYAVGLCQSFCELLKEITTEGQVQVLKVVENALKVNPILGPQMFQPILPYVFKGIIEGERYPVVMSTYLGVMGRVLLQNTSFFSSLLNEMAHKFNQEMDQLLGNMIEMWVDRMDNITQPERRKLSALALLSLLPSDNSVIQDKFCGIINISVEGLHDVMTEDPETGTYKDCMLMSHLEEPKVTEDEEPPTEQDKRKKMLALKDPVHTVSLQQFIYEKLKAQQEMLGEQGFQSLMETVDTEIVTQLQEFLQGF

For the next experiment, the target named is T2, NXT1 (human) (UniProt Q9UKK6).
T2 sequence: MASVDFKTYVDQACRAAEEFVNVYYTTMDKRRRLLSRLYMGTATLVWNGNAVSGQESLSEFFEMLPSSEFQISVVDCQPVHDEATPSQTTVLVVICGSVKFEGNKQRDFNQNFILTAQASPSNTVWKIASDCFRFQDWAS

Another experiment addresses T3, TNPO2 (human) (UniProt O14787).
T3 sequence: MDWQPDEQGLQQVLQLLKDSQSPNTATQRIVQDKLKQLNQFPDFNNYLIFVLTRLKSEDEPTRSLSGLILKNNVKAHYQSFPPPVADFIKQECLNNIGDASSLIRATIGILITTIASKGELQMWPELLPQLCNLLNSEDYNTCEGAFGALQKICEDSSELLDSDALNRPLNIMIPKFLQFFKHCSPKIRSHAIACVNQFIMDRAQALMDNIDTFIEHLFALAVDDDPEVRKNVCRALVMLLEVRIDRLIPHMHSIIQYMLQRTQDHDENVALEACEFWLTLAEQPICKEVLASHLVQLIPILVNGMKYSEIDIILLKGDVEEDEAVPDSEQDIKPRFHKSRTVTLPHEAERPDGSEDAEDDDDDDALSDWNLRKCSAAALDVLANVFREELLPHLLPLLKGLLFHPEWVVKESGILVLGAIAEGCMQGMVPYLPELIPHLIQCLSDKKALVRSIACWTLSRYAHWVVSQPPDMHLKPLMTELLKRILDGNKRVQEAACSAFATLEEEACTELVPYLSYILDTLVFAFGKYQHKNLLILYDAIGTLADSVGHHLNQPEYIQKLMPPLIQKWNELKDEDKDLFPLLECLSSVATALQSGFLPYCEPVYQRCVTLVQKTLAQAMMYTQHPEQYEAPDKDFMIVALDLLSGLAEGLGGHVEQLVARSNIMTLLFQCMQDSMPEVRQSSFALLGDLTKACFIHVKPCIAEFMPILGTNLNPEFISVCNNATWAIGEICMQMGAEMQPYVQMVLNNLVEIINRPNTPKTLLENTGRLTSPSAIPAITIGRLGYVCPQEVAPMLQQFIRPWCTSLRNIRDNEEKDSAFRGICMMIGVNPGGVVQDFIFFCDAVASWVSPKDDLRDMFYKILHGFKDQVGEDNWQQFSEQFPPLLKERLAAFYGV

With NUP153 (from UniProt P49790 1-1475), the binding result with IMA5 (human) is recorded as “binds”; in the experiment with IMA6 (human) it was “binds”; with IPO11 (human), “binds weakly”; in the experiment with IPO4 (human), “binds weakly”; with IPO5 (human) it was “binds weakly”; with NXT1 (human) it was “binds”. The binding entry with TNPO1 (human) and with TNPO2 (human) was “binds” throughout.

For the origin of these results see PMC5740495.
